Test [1] addresses T1, Flag-tagged zebrafish hif-1αa (zebrafish) (UniProt F1QNB9).
T1 sequence: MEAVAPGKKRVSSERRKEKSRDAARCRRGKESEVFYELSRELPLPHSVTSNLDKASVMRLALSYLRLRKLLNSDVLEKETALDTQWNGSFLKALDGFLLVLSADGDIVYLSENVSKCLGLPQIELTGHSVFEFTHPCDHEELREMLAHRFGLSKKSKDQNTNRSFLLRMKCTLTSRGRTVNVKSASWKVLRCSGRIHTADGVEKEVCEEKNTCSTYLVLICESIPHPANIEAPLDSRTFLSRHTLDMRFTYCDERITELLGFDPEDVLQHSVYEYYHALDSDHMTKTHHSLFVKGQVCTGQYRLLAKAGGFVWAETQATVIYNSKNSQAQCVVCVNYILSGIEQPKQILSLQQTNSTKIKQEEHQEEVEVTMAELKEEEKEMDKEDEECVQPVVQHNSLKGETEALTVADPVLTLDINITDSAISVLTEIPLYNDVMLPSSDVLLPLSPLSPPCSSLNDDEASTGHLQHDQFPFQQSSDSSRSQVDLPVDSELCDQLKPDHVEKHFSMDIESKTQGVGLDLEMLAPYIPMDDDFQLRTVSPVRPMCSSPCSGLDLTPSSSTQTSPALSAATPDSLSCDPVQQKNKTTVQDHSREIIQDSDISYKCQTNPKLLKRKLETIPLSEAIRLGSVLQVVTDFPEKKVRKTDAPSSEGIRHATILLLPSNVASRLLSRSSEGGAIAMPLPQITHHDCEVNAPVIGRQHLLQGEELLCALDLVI
In words: co-IP; HEK293T cells co-transfected with Myc-sirt7 and Flag-hif-α (or Flag empty vector), lysed in RIPA buffer after 24 h; anti-Flag antibody-conjugated agarose beads precipitate, Western blot detects; also done with cells cultured under normoxia or hypoxia for 4 h (interaction enhanced under hypoxia). (In general: Immunoblotting shows a protein as a band on a membrane.)

Test [2] deals with T2, Flag-tagged zebrafish hif-1αb (zebrafish) (UniProt Q6EHI4).
T2 sequence: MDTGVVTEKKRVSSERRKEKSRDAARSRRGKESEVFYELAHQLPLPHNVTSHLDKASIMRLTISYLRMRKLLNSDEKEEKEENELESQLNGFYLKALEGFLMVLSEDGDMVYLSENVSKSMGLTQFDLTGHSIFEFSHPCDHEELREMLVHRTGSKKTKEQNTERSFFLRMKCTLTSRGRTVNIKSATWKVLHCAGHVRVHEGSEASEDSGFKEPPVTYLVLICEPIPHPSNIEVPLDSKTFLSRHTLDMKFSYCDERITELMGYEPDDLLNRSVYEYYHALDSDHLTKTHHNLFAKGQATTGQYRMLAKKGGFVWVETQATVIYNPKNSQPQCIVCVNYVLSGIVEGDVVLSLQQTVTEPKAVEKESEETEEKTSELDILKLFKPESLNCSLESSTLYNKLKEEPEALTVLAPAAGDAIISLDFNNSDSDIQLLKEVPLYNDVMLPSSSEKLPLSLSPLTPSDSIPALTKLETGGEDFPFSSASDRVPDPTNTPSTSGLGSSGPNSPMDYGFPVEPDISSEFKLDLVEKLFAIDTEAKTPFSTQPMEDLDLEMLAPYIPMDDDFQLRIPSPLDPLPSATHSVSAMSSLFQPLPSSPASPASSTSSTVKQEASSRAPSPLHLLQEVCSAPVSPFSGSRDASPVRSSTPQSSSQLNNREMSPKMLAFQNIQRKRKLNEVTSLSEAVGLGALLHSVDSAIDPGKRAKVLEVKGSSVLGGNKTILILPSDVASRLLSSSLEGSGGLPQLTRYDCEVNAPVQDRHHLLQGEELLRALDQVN
The test is described as above.

No constants are given. Whether binding was seen depends on the method and setting. In cells and extracts the contact can be indirect. A result given as binding can be weak or reduced; the word gives no strength. Tags and fused reporters may be left off the sequences shown.

These results are taken from article PMC10448219.

Myc-tagged zebrafish sirt7 (enzyme): the binding result in test [1] and in test [2] was “binds” in each case.
